The other results are listed elsewhere or left out. Hit calls seldom repeat between salt and free forms of one compound.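 Kinases, fused to nanoluciferase, were expressed in K562 cells; luminescence was measured every 4 h from 2 to 18 h as percent of control (DMSO = 100%, positive control = 0%). A time point is decreased if signal falls significantly (2 sigma). Hits were called by the authors by a rule that is not shown; the count of time points alone does not decide it.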
Columns and labels:
Assay in all cases: kinase-Nluc reporter destabilization hit call (1 = scored as downregulated) (binary); higher = compound decreases kinase abundance
Details in all cases: K562; 2-18 h
PDPK1 = PDPK1 (UniProt O15530)
PIK4CA = PIK4CA (UniProt P42356)
PIK4CB = PIK4CB (UniProt Q9UBF8)
PLK1 = PLK1 (UniProt P53350)
PRKAA1 = PRKAA1 (UniProt Q13131)
PRKCA = PRKCA (UniProt P17252)
PTK2 = PTK2 (UniProt Q05397)
PTK2B = PTK2B (UniProt Q14289)
RAF1 = RAF1 (UniProt P04049)
[1] = biological target: RAF1_S257L (clone: RAF1_mut) (UniProt P04049)

Sequences of proteins named here, by UniProt entry; tags and fusion partners are left off. A change or cut given only in a name is not applied to a line headed by its entry.
UniProt O15530: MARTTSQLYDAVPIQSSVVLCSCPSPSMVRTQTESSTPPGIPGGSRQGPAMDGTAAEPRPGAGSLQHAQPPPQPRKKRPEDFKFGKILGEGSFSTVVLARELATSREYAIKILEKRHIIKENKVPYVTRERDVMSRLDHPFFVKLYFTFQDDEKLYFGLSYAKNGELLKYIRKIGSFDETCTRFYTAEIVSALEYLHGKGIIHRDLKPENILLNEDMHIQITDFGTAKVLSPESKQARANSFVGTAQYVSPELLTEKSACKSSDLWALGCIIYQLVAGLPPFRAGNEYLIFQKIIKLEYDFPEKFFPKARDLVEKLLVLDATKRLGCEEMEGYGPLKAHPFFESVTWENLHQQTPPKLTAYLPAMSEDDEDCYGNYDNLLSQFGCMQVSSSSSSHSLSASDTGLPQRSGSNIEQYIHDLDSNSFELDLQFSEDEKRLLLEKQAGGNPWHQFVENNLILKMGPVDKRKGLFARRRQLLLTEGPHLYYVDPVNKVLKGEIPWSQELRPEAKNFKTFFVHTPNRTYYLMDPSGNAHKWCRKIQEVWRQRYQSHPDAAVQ
UniProt P42356, whole entry, looked up: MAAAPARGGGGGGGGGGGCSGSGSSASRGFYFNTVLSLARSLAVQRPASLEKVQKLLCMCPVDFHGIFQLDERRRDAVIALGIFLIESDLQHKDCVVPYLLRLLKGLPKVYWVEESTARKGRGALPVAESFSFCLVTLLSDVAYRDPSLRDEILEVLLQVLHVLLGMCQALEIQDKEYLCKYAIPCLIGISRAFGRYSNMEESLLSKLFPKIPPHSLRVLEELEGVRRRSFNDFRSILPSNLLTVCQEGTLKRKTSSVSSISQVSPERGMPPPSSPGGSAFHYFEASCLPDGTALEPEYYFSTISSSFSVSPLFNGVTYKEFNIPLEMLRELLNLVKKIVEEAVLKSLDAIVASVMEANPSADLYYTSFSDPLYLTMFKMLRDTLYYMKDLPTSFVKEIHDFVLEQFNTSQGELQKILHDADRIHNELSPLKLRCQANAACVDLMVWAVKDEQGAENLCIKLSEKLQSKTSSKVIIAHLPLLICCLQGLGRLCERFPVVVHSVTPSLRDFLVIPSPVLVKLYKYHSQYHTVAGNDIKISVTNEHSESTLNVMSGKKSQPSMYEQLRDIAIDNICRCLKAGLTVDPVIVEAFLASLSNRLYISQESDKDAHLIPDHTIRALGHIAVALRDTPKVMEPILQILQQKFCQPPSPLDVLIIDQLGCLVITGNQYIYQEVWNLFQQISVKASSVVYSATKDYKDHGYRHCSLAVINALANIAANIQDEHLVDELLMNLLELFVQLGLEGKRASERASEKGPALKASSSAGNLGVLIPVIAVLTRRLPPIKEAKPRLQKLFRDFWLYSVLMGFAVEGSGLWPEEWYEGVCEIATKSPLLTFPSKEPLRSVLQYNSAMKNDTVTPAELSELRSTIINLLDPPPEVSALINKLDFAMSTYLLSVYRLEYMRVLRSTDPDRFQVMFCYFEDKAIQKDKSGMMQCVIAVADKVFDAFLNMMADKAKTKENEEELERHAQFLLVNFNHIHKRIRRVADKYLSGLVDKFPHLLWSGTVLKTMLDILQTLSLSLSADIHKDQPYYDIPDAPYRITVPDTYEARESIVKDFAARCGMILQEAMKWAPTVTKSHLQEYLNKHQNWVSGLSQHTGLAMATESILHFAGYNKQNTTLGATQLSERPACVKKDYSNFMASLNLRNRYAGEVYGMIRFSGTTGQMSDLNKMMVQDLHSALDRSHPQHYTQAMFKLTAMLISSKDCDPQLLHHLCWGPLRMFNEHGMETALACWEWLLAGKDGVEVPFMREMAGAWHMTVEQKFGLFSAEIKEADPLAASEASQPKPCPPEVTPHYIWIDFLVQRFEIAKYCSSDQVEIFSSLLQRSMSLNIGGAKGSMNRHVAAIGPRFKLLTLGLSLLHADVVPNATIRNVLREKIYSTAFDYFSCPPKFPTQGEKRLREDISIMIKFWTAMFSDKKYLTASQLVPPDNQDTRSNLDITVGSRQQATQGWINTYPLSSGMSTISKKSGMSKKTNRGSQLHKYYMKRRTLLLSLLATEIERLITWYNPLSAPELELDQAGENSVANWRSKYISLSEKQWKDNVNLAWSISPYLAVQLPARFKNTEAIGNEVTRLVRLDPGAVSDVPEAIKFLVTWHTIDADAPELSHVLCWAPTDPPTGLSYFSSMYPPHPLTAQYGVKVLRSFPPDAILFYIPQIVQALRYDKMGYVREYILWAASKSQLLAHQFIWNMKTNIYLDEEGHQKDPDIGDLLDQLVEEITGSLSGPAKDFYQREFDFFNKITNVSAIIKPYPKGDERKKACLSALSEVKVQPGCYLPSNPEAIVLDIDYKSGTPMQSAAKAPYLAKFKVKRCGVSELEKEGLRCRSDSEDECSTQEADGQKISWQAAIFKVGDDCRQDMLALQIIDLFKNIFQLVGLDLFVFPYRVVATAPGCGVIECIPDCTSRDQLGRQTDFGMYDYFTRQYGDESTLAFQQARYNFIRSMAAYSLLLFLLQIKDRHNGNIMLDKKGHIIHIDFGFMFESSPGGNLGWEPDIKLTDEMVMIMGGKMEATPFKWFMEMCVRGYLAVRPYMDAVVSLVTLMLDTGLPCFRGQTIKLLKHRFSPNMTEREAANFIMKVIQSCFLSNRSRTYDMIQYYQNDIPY
UniProt Q9UBF8: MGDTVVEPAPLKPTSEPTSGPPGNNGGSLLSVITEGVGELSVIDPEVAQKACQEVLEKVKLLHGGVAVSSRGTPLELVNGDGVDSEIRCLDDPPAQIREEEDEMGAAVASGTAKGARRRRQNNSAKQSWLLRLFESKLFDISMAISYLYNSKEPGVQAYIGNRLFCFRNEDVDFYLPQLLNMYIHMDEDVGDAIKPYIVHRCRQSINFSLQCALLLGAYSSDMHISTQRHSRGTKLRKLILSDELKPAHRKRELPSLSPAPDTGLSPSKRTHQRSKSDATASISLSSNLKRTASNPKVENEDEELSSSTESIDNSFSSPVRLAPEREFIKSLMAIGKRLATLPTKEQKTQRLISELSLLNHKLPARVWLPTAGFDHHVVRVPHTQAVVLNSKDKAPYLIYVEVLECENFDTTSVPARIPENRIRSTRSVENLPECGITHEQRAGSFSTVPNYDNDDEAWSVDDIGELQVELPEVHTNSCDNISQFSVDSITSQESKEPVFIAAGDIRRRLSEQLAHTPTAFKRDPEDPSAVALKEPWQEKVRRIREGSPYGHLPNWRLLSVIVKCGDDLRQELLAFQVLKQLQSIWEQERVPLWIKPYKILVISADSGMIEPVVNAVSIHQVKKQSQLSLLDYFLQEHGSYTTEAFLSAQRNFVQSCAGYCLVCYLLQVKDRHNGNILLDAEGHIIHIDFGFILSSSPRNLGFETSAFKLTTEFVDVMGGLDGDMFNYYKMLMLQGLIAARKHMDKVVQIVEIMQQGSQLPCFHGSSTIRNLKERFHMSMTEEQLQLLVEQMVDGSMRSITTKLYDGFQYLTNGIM
UniProt P53350, whole entry: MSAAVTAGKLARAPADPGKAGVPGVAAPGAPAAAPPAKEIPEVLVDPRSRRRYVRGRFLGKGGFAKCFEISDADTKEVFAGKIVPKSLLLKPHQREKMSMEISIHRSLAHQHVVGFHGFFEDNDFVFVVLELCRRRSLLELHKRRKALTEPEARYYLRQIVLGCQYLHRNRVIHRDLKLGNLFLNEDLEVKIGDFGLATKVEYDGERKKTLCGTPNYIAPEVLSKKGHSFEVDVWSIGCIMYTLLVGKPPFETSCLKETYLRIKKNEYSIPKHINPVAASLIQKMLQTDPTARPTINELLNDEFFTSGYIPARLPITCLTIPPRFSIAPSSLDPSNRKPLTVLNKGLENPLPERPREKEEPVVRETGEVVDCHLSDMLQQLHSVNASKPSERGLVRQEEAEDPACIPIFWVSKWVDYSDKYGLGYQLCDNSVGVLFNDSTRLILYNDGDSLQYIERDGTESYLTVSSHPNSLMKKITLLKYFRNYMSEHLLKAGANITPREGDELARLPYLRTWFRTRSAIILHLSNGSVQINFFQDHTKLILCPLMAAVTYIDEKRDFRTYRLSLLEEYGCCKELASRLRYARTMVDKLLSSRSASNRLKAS
UniProt Q13131: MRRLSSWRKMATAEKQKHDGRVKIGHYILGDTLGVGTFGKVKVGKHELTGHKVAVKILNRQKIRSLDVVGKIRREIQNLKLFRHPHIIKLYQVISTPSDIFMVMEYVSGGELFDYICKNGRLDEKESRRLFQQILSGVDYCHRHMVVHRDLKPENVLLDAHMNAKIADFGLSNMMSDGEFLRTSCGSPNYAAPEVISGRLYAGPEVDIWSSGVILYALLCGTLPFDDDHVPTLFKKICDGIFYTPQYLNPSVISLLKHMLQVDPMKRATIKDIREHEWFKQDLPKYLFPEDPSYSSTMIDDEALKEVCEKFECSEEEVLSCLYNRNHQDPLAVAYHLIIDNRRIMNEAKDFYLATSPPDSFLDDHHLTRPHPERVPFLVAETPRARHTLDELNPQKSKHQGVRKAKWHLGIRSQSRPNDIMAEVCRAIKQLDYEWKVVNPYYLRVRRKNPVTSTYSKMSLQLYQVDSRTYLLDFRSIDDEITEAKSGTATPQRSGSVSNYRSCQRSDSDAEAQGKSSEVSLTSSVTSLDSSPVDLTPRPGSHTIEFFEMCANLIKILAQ
UniProt Q05397, whole entry, looked up: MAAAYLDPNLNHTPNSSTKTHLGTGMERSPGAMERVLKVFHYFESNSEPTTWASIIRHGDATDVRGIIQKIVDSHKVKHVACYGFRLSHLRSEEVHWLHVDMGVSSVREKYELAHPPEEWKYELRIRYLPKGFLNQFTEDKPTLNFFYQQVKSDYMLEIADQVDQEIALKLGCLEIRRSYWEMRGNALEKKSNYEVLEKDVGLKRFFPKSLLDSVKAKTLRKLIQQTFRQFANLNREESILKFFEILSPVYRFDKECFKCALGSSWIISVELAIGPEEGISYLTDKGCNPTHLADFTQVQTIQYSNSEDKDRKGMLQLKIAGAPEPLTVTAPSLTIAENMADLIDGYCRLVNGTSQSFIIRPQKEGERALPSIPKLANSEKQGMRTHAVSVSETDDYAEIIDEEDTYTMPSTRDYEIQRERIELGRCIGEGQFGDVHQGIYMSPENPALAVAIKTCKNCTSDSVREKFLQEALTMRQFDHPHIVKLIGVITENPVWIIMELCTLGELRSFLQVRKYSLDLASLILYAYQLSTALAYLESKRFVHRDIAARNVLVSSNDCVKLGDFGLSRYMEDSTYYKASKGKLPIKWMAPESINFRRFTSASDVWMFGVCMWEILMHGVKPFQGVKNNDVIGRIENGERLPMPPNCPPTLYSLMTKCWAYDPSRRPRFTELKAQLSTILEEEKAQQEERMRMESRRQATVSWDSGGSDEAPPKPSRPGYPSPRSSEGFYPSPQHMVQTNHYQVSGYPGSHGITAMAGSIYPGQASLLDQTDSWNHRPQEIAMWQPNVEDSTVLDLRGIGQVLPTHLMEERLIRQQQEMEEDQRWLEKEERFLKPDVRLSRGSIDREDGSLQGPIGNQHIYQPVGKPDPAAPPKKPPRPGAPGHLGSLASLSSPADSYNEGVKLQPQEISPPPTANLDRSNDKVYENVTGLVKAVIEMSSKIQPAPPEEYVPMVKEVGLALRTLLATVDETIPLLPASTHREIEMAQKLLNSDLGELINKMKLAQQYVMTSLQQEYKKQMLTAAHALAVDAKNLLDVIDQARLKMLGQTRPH

Measured: kinase-Nluc reporter destabilization hit call

COc1nc(-c2cccc3c2OCCO3)ccc1Nc1ccc(CN(C)C)cc1 [RAS inhibitor Abd-7] (10 µM)
inactive: PDPK1 = 0 | PIK4CA 0 | PIK4CB 0 | PLK1 = 0 | PRKAA1 = 0 | PRKCA 0 | PTK2 = 0 | PTK2B 0 | RAF1 = 0 | [1] 0

Cc1cnc(Nc2ccc(N3CCN(C)CC3)cc2)nc1Nc1cccc(S(=O)(=O)NC(C)(C)C)c1 (2.5 µM)
inactive: PDPK1 = 0 | PIK4CA 0 | PIK4CB 0 | PLK1 = 0 | PRKAA1 = 0 | PRKCA 0 | PTK2 = 0 | PTK2B 0 | RAF1 = 0 | [1] 0

O=C1NC(=O)/C(=C/c2ccc(-c3ccc(F)cc3O)o2)S1 (10 µM)
inactive: PDPK1 = 0 | PIK4CA 0 | PIK4CB 0 | PLK1 = 0 | PRKAA1 = 0 | PRKCA 0 | PTK2 = 0 | PTK2B 0 | RAF1 = 0 | [1] 0

CN(C)c1ncnc2nc[nH]c12 [6-(Dimethylamino)purine] (10 µM)
inactive: PDPK1 = 0 | PIK4CA 0 | PIK4CB 0 | PLK1 = 0 | PRKAA1 = 0 | PRKCA 0 | PTK2 = 0 | PTK2B 0 | RAF1 = 0 | [1] 0

COc1ccc2c(=O)c(-c3ccccc3)coc2c1 [7-Methoxyisoflavone] (10 µM)
inactive: PDPK1 = 0 | PIK4CA 0 | PIK4CB 0 | PLK1 = 0 | PRKAA1 = 0 | PRKCA 0 | PTK2 = 0 | PTK2B 0 | RAF1 = 0 | [1] 0

COc1cc(N2CCC(O)CC2)ccc1Nc1cc(Nc2ccccc2S(=O)(=O)C(C)C)c2cc[nH]c2n1 (10 µM)
inactive: PDPK1 = 0 | PIK4CA 0 | PIK4CB 0 | PLK1 = 0 | PRKAA1 = 0 | PRKCA 0 | PTK2 = 0 | PTK2B 0 | RAF1 = 0 | [1] 0

CC(C)(O)[C@@H]1CC[C@](C)([C@H]2[C@@H](O)C[C@@]3(C)[C@@H]4C[C@H](O[C@@H]5O[C@H](CO)[C@@H](O)[C@H](O)[C@H]5O)[C@H]5C(C)(C)[C@@H](O[C@@H]6OC[C@@H](O)[C@H](O)[C@H]6O[C@@H]6O[C@H](CO)[C@@H](O)[C@H](O)[C@H]6O)CC[C@@]56C[C@@]46CC[C@]23C)O1 [Astragaloside VI] (10 µM)
inactive: PDPK1 = 0 | PIK4CA 0 | PIK4CB 0 | PLK1 = 0 | PRKAA1 = 0 | PRKCA 0 | PTK2 = 0 | PTK2B 0 | RAF1 = 0 | [1] 0

N#C/C(=C\c1ccc2oc(=O)[nH]c2c1)C(=O)c1ccc(O)c(O)c1 (10 µM)
inactive: PDPK1 = 0 | PIK4CA 0 | PIK4CB 0 | PLK1 = 0 | PRKAA1 = 0 | PRKCA 0 | PTK2 = 0 | PTK2B 0 | RAF1 = 0 | [1] 0

For convenience, 2 of the compounds above:
CC(C)(O)[C@@H]1CC[C@](C)([C@H]2[C@@H](O)C[C@@]3(C)[C@@H]4C[C@H](O[C@@H]5O[C@H](CO)[C@@H](O)[C@H](O)[C@H]5O)[C@H]5C(C)(C)[C@@H](O[C@@H]6OC[C@@H](O)[C@H](O)[C@H]6O[C@@H]6O[C@H](CO)[C@@H](O)[C@H](O)[C@H]6O)CC[C@@]56C[C@@]46CC[C@]23C)O1 [Astragaloside VI] (10 µM)
inactive: PDPK1 = 0 | PIK4CA 0 | PIK4CB 0 | PLK1 = 0 | PRKAA1 = 0 | PRKCA 0 | PTK2 = 0 | PTK2B 0 | RAF1 = 0 | [1] 0

N#C/C(=C\c1ccc2oc(=O)[nH]c2c1)C(=O)c1ccc(O)c(O)c1 (10 µM)
inactive: PDPK1 = 0 | PIK4CA 0 | PIK4CB 0 | PLK1 = 0 | PRKAA1 = 0 | PRKCA 0 | PTK2 = 0 | PTK2B 0 | RAF1 = 0 | [1] 0

Next part

C=CC(=O)Nc1cccc(-n2c(=O)cc(C)c3cnc(Nc4ccc(OCCN(C)C)cc4OC)nc32)c1 (10 µM)
inactive: PDPK1 = 0 | PIK4CA 0 | PIK4CB 0 | PLK1 = 0 | PRKAA1 = 0 | PRKCA 0 | PTK2 = 0 | PTK2B 0 | RAF1 = 0 | [1] 0

Cc1ccc(-c2nn(C(C)(C)CNC(=O)c3ccncc3)c3ncnc(N)c23)cc1 (2.5 µM)
inactive: PDPK1 = 0 | PIK4CA 0 | PIK4CB 0 | PLK1 = 0 | PRKAA1 = 0 | PRKCA 0 | PTK2 = 0 | PTK2B 0 | RAF1 = 0 | [1] 0

Nc1[nH]c(=O)nc2c1ncn2[C@@H]1O[C@H](CO)[C@@H](O)[C@H]1O [Crotonoside] (10 µM)
inactive: PDPK1 = 0 | PIK4CA 0 | PIK4CB 0 | PLK1 = 0 | PRKAA1 = 0 | PRKCA 0 | PTK2 = 0 | PTK2B 0 | RAF1 = 0 | [1] 0

COc1cc2ncnc(Nc3ccc(NC(=O)c4ccccc4)cc3)c2cc1OC [Aurora kinase inhibitor-2] (2.5 µM)
inactive: PDPK1 = 0 | PIK4CA 0 | PIK4CB 0 | PLK1 = 0 | PRKAA1 = 0 | PRKCA 0 | PTK2 = 0 | PTK2B 0 | RAF1 = 0 | [1] 0

CCc1c(C)sc(NC(=S)NC(=O)c2ccc(Cl)cc2)c1C(N)=O (10 µM)
inactive: PDPK1 = 0 | PIK4CA 0 | PIK4CB 0 | PLK1 = 0 | PRKAA1 = 0 | PRKCA 0 | PTK2 = 0 | PTK2B 0 | RAF1 = 0 | [1] 0

CC(C)n1cnc2c(Nc3cccc(Cl)c3)nc(NCCO)nc21 (10 µM)
inactive: PDPK1 = 0 | PIK4CA 0 | PIK4CB 0 | PLK1 = 0 | PRKAA1 = 0 | PRKCA 0 | PTK2 = 0 | PTK2B 0 | RAF1 = 0 | [1] 0

Cn1cc(-c2cc3c(N4CCN(c5ncc([C@@](C)(N)c6ccc(F)cc6)cn5)CC4)ncnn3c2)cn1 [Avapritinib] (2.5 µM)
inactive: PDPK1 = 0 | PIK4CA 0 | PIK4CB 0 | PLK1 = 0 | PRKAA1 = 0 | PRKCA 0 | PTK2 = 0 | PTK2B 0 | RAF1 = 0 | [1] 0

C=CC(=O)N1CCC[C@@H](n2nc(C(=O)Nc3ccc(CC(=O)N(C)C)c(C)c3C)c3c(N)ncnc32)C1 (10 µM)
inactive: PDPK1 = 0 | PIK4CA 0 | PIK4CB 0 | PLK1 = 0 | PRKAA1 = 0 | PRKCA 0 | PTK2 = 0 | PTK2B 0 | RAF1 = 0 | [1] 0

C=CC(=O)N1CCC(Oc2cc3c(Nc4ccc(Cl)c(Cl)c4F)ncnc3cc2OC)CC1 [Poziotinib] (2.5 µM)
inactive: PDPK1 = 0 | PIK4CA 0 | PIK4CB 0 | PLK1 = 0 | PRKAA1 = 0 | PRKCA 0 | PTK2 = 0 | PTK2B 0 | RAF1 = 0 | [1] 0

COc1cc(N2CCC(N3CCN(C)CC3)CC2)ccc1Nc1nc2c(c(Nc3ccccc3S(=O)(=O)NC(C)C)n1)CCN2 [Conteltinib] (10 µM)
inactive: PDPK1 = 0 | PIK4CA 0 | PIK4CB 0 | PLK1 = 0 | PRKAA1 = 0 | PRKCA 0 | PTK2 = 0 | PTK2B 0 | RAF1 = 0 | [1] 0

CC[C@H](C)[C@H](NC(=O)[C@H](CCC(=O)O)NC(=O)[C@H](CCCN=C(N)N)NC(=O)[C@H](CCCN=C(N)N)NC(=O)[C@@H](N)CCCCN)C(=O)N[C@@H](CC(C)C)C(=O)N[C@@H](CO)C(=O)N[C@@H](CCCN=C(N)N)C(=O)N[C@@H](CCCN=C(N)N)C(=O)N1CCC[C@H]1C(=O)N[C@@H](CO)C(=O)N[C@@H](Cc1ccc(O)cc1)C(=O)N[C@@H](CCCN=C(N)N)C(=O)O [CREBtide] (10 µM)
inactive: PDPK1 = 0 | PIK4CA 0 | PIK4CB 0 | PLK1 = 0 | PRKAA1 = 0 | PRKCA 0 | PTK2 = 0 | PTK2B 0 | RAF1 = 0 | [1] 0

O=c1cc(-c2ccc(O)c(O)c2O)oc2ccccc12 (10 µM)
inactive: PDPK1 = 0 | PIK4CA 0 | PIK4CB 0 | PLK1 = 0 | PRKAA1 = 0 | PRKCA 0 | PTK2 = 0 | PTK2B 0 | RAF1 = 0 | [1] 0

Cc1nc(NC(=O)NCCc2nnn(CCF)n2)sc1-c1ccc(S(C)(=O)=O)c(F)c1 (10 µM)
inactive: PDPK1 = 0 | PIK4CA 0 | PIK4CB 0 | PLK1 = 0 | PRKAA1 = 0 | PRKCA 0 | PTK2 = 0 | PTK2B 0 | RAF1 = 0 | [1] 0

CN(C)C(=O)c1ccc(S(=O)(=O)c2ccc(NC(=O)[C@@](C)(O)C(F)(F)F)c(Cl)c2)cc1 (10 µM)
inactive: PDPK1 = 0 | PIK4CA 0 | PIK4CB 0 | PLK1 = 0 | PRKAA1 = 0 | PRKCA 0 | PTK2 = 0 | PTK2B 0 | RAF1 = 0 | [1] 0

COc1nc(-c2ccnc(NC(=O)C3CC3)c2)sc1C(N)=O [GSK-3β inhibitor 2] (10 µM)
inactive: PDPK1 = 0 | PIK4CA 0 | PIK4CB 0 | PLK1 = 0 | PRKAA1 = 0 | PRKCA 0 | PTK2 = 0 | PTK2B 0 | RAF1 = 0 | [1] 0

O=c1ccoc2cc(O)ccc12 [7-Hydroxy-4H-chromen-4-one] (10 µM)
inactive: PDPK1 = 0 | PIK4CA 0 | PIK4CB 0 | PLK1 = 0 | PRKAA1 = 0 | PRKCA 0 | PTK2 = 0 | PTK2B 0 | RAF1 = 0 | [1] 0

CC1(COc2ccc3c(c2)ncn3-c2ccc3cccc(N4CCC(N)CC4)c3n2)COC1 [Crenolanib] (2.5 µM)
inactive: PDPK1 = 0 | PIK4CA 0 | PIK4CB 0 | PLK1 = 0 | PRKAA1 = 0 | PRKCA 0 | PTK2 = 0 | PTK2B 0 | RAF1 = 0 | [1] 0

CC(C)c1cc(/C=C(\C#N)C(N)=O)cc(C(C)C)c1O (10 µM)
inactive: PDPK1 = 0 | PIK4CA 0 | PIK4CB 0 | PLK1 = 0 | PRKAA1 = 0 | PRKCA 0 | PTK2 = 0 | PTK2B 0 | RAF1 = 0 | [1] 0

COc1cc(C(=O)N2CCC(N3CCN(C)CC3)CC2)ccc1Nc1ncc2c(n1)N(C)c1ccccc1C(=O)N2C (10 µM)
inactive: PDPK1 = 0 | PIK4CA 0 | PIK4CB 0 | PLK1 = 0 | PRKAA1 = 0 | PRKCA 0 | PTK2 = 0 | PTK2B 0 | RAF1 = 0 | [1] 0

N#Cc1ccc(-c2c(-c3ncn[nH]3)sc(N3CCOCC3)c2C#N)c(F)c1 (10 µM)
inactive: PDPK1 = 0 | PIK4CA 0 | PIK4CB 0 | PLK1 = 0 | PRKAA1 = 0 | PRKCA 0 | PTK2 = 0 | PTK2B 0 | RAF1 = 0 | [1] 0

Reference: the supplement of paper PMC12823440, “Inhibitors supercharge kinase turnover through native proteolytic circuits” (Nature, 2025)
